Experimental data taken from patent US10426773B2, “Systems pharmacology for treating ocular disorders” (Case Western Reserve Univeristy, priority 2011, dated 2019).

Test system: Abca4−/−Rdh8−/− mice
Assay: Bright light-induced retinal degeneration in Abca4−/−Rdh8−/− mice, OCT imaging of retinal structure
Assay type: in vivo, mouse
Details: ip, dose of each compound in column Dose of Table 1

CN1CCC(=C2c3ccccc3C=Cc3ccccc32)CC1.Cl [Cyproheptadine]
Effect (effectiveness at preventing light-induced photoreceptor degeneration as measured by OCT imaging): toxic
